The source of these data is paper doi:10.1101/2020.08.25.267237.

Assay [1] concerns the target T1, FLAG-CTCF (mouse cDNA) expressed in 293FT cells (mouse) (UniProt Q61164).
T1 sequence: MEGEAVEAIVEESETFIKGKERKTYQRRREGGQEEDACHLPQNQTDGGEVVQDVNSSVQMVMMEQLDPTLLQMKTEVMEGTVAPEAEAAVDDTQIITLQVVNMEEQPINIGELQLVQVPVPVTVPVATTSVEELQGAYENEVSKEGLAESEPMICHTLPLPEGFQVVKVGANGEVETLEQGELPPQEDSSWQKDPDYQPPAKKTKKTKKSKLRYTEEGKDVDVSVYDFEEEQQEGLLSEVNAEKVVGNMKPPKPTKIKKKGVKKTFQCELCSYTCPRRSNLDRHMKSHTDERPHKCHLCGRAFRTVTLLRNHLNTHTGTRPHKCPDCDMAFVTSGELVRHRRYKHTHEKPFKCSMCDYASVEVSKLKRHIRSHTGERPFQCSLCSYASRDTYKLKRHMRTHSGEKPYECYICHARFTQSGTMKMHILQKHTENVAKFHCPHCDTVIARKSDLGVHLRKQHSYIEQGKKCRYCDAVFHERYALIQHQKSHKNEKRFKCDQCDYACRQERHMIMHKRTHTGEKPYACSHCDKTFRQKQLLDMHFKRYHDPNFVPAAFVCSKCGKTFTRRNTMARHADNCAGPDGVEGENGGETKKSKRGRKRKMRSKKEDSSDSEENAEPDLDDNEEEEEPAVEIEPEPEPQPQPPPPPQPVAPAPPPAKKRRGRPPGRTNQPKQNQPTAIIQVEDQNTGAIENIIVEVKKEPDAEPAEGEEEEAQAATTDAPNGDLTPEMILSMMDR
In words: co-IP.

Assay [2] concerns the target T2, FLAG-MAZ (mouse cDNA) expressed in 293FT cells (mouse) (UniProt P56671).
T2 sequence: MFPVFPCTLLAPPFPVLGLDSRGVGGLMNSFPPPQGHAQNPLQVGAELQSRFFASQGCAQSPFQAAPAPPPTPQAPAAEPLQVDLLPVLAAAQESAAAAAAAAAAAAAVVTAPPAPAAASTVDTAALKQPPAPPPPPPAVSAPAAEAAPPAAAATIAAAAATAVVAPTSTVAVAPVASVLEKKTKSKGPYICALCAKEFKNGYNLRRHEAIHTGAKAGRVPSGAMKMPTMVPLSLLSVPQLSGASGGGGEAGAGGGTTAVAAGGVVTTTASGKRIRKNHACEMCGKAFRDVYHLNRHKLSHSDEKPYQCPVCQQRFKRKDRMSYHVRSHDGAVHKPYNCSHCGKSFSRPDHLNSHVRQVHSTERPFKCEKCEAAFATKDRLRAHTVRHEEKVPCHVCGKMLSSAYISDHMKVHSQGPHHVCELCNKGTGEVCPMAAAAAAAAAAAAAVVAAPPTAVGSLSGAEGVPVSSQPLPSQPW
In words: co-IP.

These are yes or no findings as the source states them, for the method shown. Binding seen in cells or lysates may run through a third protein. Some results given as binding are weak or reduced against the parent protein; the word gives no strength. Sequences can lack the tags named with a protein.

B1: RAD21, cohesin subunit, endogenous in 293FT cells (protein, UniProt O60216 1-631)
chain: MFYAHFVLSKRGPLAKIWLAAHWDKKLTKAHVFECNLESSVESIISPKVKMALRTSGHLLLGVVRIYHRKAKYLLADCNEAFIKIKMAFRPGVVDLPEENREAAYNAITLPEEFHDFDQPLPDLDDIDVAQQFSLNQSRVEEITMREEVGNISILQENDFGDFGMDDREIMREGSAFEDDDMLVSTTTSNLLLESEQSTSNLNEKINHLEYEDQYKDDNFGEGNDGGILDDKLISNNDGGIFDDPPALSEAGVMLPEQPAHDDMDEDDNVSMGGPDSPDSVDPVEPMPTMTDQTTLVPNEEEAFALEPIDITVKETKAKRKRKLIVDSVKELDSKTIRAQLSDYSDIVTTLDLAPPTKKLMMWKETGGVEKLFSLPAQPLWNNRLLKLFTRCLTPLVPEDLRKRRKGGEADNLDEFLKEFENPEVPREDQQQQHQQRDVIDEPIIEEPSRLQESVMEASRTNIDESAMPPPPPQGVKRKAGQIDPEPVMPPQQVEQMEIPPVELPPEEPPNICQLIPELELLPEKEKEKEKEKEDDEEEEDEDASGGDQDQEERRWNKRTQQMLHGLQRALAKTGAESISLLELCRNTNRKQAAAKFYSFLVLKKQQAIELTQEEPYSDIIATPGPRFHII
As to B1, the binding result in assay [1] and in assay [2] was “binds” in each case.

B2: MAZ, endogenous in 293FT cells (protein, UniProt P56270 1-477)
chain: MFPVFPCTLLAPPFPVLGLDSRGVGGLMNSFPPPQGHAQNPLQVGAELQSRFFASQGCAQSPFQAAPAPPPTPQAPAAEPLQVDLLPVLAAAQESAAAAAAAAAAAAAVAAAPPAPAAASTVDTAALKQPPAPPPPPPPVSAPAAEAAPPASAATIAAAAATAVVAPTSTVAVAPVASALEKKTKSKGPYICALCAKEFKNGYNLRRHEAIHTGAKAGRVPSGAMKMPTMVPLSLLSVPQLSGAGGGGGEAGAGGGAAAVAAGGVVTTTASGKRIRKNHACEMCGKAFRDVYHLNRHKLSHSDEKPYQCPVCQQRFKRKDRMSYHVRSHDGAVHKPYNCSHCGKSFSRPDHLNSHVRQVHSTERPFKCEKCEAAFATKDRLRAHTVRHEEKVPCHVCGKMLSSAYISDHMKVHSQGPHHVCELCNKGTGEVCPMAAAAAAAAAAAAAAVAAPPTAVGSLSGAEGVPVSSQPLPSQPW
Turning to B2, the binding entry in assay [1] is on record as “no binding”.
